These are yes or no findings as the source states them, for the method shown. Binding seen in cells or lysates may run through a third protein. A yes stands for co-enrichment or nearness to the bait. Other partners may have been found. Where a sequence is shown, tags or fusion partners need not be part of it.

The assay deals with T1, YFP-COP1 (Arabidopsis) (UniProt P43254).
T1 sequence: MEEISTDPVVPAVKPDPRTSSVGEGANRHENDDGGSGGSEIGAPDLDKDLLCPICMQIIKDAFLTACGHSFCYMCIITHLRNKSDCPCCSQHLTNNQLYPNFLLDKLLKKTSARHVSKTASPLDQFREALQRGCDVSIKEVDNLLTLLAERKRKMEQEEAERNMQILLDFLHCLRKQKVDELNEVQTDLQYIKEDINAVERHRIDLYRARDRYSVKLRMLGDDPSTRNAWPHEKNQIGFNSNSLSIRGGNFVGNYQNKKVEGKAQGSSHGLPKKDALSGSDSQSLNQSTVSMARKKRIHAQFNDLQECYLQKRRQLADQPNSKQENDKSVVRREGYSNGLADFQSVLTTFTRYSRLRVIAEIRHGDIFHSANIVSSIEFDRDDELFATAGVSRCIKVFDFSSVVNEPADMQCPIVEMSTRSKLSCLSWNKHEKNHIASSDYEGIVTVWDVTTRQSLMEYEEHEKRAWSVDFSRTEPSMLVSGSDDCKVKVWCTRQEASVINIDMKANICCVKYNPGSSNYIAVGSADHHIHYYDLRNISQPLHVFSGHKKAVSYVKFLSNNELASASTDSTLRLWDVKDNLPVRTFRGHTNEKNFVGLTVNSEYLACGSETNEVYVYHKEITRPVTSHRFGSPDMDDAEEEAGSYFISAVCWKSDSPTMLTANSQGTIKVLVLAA
Kind of assay: affinity purification with mass spectrometry; GFP-Trap beads (ChromoTek) on YFP-COP1 transgenic plants, IP-MS; hits also had to be found in a K63 TUBE capture dependent on COP1.

B1: GH3.6 (enzyme, UniProt Q9LSQ4 1-612)
chain: MPEAPKIAALEVSDESLAEKNKNKLQFIEDVTTNADDVQRRVLEEILSRNADVEYLKRHGLEGRTDRETFKHIMPVVTYEDIQPEINRIANGDKSQVLCSNPISEFLTSSGTSGGERKLMPTIEEELDRRSLLYSLLMPVMDQFVPGLDKGKGMYFLFIKSESKTPGGLPARPVLTSYYKSSHFKNRPYDPYTNYTSPNQTILCSDSYQSMYSQMLCGLCQHKEVLRVGAVFASGFIRAIKFLEKHWPELARDIRTGTLSSEITDSSVREAVGEILKPDPKLADFVESECRKTSWQGIITRLWPNTKYVDVIVTGTMSQYIPTLDYYSNGLPLVCTMYASSECYFGVNLRPLCKPSEVSYTLIPNMAYFEFLPVHRNSGVTSSISLPKALTEKEQQELVDLVDVKLGQEYELVVTTYAGLYRYRVGDVLSVAGFKNNAPQFSFICRKNVVLSIDSDKTDEVELQNAVKNAVTHLVPFDASLSEYTSYADTSSIPGHYVLFWELCLNGNTPIPPSVFEDCCLTIEESLNSVYRQGRVSDKSIGPLEIKMVESGTFDKLMDYAISLGASINQYKTPRCVKFAPIIELLNSRVVDSYFSPKCPKWSPGHKQWGSN
For B1, the binding entry is “binds”.
